Test results taken from article PMC3571920.
No constants are given. Whether binding was seen depends on the method and setting. Binding seen in cells or lysates may run through a third protein. Binding can be weak; no strength is given.

Target: HIV-1 integrase tagged at the C-terminus with the HA epitope (IN-HA) (HIV-1 (Lai molecular clone))
Experiment: co-IP; 3 mg whole cell extract of infected SupT1 cells (2 h and 6 h p.i.) on anti-HA affinity matrix (clone 3F10), 3 h at 4°C; washed with PBS-0.1% tween 20; Western blot of LEDGF/p75, TNPO3 and HA

B1: TNPO3 (protein, UniProt Q9Y5L0 1-923)
chain: MEGAKPTLQLVYQAVQALYHDPDPSGKERASFWLGELQRSVHAWEISDQLLQIRQDVESCYFAAQTMKMKIQTSFYELPTDSHASLRDSLLTHIQNLKDLSPVIVTQLALAIADLALQMPSWKGCVQTLVEKYSNDVTSLPFLLEILTVLPEEVHSRSLRIGANRRTEIIEDLAFYSSTVVSLLMTCVEKAGTDEKMLMKVFRCLGSWFNLGVLDSNFMANNKLLALLFEVLQQDKTSSNLHEAASDCVCSALYAIENVETNLPLAMQLFQGVLTLETAYHMAVAREDLDKVLNYCRIFTELCETFLEKIVCTPGQGLGDLRTLELLLICAGHPQYEVVEISFNFWYRLGEHLYKTNDEVIHGIFKAYIQRLLHALARHCQLEPDHEGVPEETDDFGEFRMRVSDLVKDLIFLIGSMECFAQLYSTLKEGNPPWEVTEAVLFIMAAIAKSVDPENNPTLVEVLEGVVRLPETVHTAVRYTSIELVGEMSEVVDRNPQFLDPVLGYLMKGLCEKPLASAAAKAIHNICSVCRDHMAQHFNGLLEIARSLDSFLLSPEAAVGLLKGTALVLARLPLDKITECLSELCSVQVMALKKLLSQEPSNGISSDPTVFLDRLAVIFRHTNPIVENGQTHPCQKVIQEIWPVLSETLNKHRADNRIVERCCRCLRFAVRCVGKGSAALLQPLVTQMVNVYHVHQHSCFLYLGSILVDEYGMEEGCRQGLLDMLQALCIPTFQLLEQQNGLQNHPDTVDDLFRLATRFIQRSPVTLLRSQVVIPILQWAIASTTLDHRDANCSVMRFLRDLIHTGVANDHEEDFELRKELIGQVMNQLGQQLVSQLLHTCCFCLPPYTLPDVAEVLWEIMQVDRPTFCRWLENSLKGLPKETTVGAVTVTHKQLTDFHKQVTSAEECKQVCWALRDFTRLFR
binding: binds
